The text below walks through data of patent publication US20250355001A1, “METHOD FOR DETECTING A TAU PROTEIN FRAGMENT IN A SAMPLE” (GTINVENT LIMITED, priority 2022, published 2025).

For data set [1], the system named is tau fragments in plasma of WT, L1 and L66 mice. Put plainly: Capture ELISA on transgenic mouse plasma. The settings on record: S1D12 mAb capture, S1G2 scAb detection. The protocol:
Plasma samples from WT, L1, L66+/− and L66+/+ of various ages (1.5-9 months) were taken as described. Mice were terminally anaesthetized using an overdose of sodium pentobarbital and blood was collected through cardiac puncture through a Plastipak syringe pre-rinsed with heparinised saline heparin (10 U/ml) (Heparin sodium salt; Sigma-Aldrich) and transferred into a plastic vial containing lithium heparin anticoagulant (Sarstedt Ltd.) Blood samples, kept on ice for no more than 30 minutes, were centrifuged to obtain plasma at 2000× g for 5 minutes at 6° C. Plasma samples were stored at −20° C.
For mouse plasma capture ELISA, 100 μL capture mAb was coated to the bottom of a black nunc 96 well ‘maxisorp’ plate at 2.5 μg/ml and incubated for 1 hour at 37° C. After washing and blocking as normal, several known standard solutions were set up in triplicate starting at 20 ng/ml of the desired protein before double diluted in the remaining wells. Mouse samples were added to wells in duplicate with a blank in between each sample group. Line1 plasma was diluted 1:10 before addition to plate to account for its high concentration while other samples were diluted 1:2 to account for potential matrix effects. These samples were left to incubate at RT for 1 hour. HRP-conjugated secondary scAb (conjugation carried out according to manufacturer's guidelines, Abcam) was added to each well and left to incubate at RT for 1 hour. The ELISA was developed using SuperSignal ELISA Femto Substrate (Thermo Scientific) and total luminescence was read on Clariostar Plus plate reader (BMG Labtech). Tau concentrations were established using a 4-parameter fit on concentration curves generated from recombinant tau protein spiked into samples at known concentration. For WT and L66 hT40 was used as a calibrator while dGA was used for L1 calibration.
On the technique in general: ELISA stands for enzyme-linked immunosorbent assay.

In data set [2] the test system is tau protein in brain homogenate of WT, L1 and L66 mice. Nature of the data set: Capture ELISA on transgenic mouse brain lysates. The settings on record: S1D12 mAb capture.

B1: S1D12 mAb: S1D12 reformatted; heavy chain SEQ ID NO: 445, light chain 446 (antibody)
heavy: QVQLQESGPSLVKPSQTLSLTCTVSGFSLNNNAVGWVRQAPGKVPESLVGCSSDGTCYYNSALKSRLDITRDTSKNQISLSLSSVTTDDAAVYYCTRGHYSIYGYDYLGTIDYWGPGLLVTVSSAKTTAPSVYPLAPVCGDTTGSSVTLGCLVKGYFPEPVTLTWNSGSLSSGVHTFPAVLQSDLYTLSSSVTVTSSTWPSQSITCNVAHPASSTKVDKKIEPRGPTIKPCPPCKCPAPNLLGGPSVFIFPPKIKDVLMISLSPIVTCVVVDVSEDDPDVQISWFVNNVEVHTAQTQTHREDYNSTLRVVSALPIQHQDWMSGKEFKCKVNNKDLPAPIERTISKPKGSVRAPQVYVLPPPEEEMTKKQVTLTCMVTDFMPEDIYVEWTNNGKTELNYKNTEPVLDSDGSYFMYSKLRVEKKNWVERNSYSCSVVHEGLHNHHTTKSFSRTPGK
light: QAVLTQPSSVSGSLGQRVSITCSGSSSNVGGGNSVGWYQHLPGSGLKTIIYDTNSRPSGVPDRFSGSRSGNTATLTINSLQAEDEGDYYCVTGDSTTHDDLVGSGTRLTVLGGQPKSSPSVTLFPPSSEELETNKATLVCTITDFYPGVVTVDWKVDGTPVTQGMETTQPSKQSNNKYMASSYLTLTARAWERHSSYSCQVTHEGHTVEKSLSRADCS
modifications: S1D12 mAB Heavy Chain; S1D12 mAB Light Chain
For the molecule B1, the Plasma tau level in data set [1] (L1 5 month, dGA calibrator) turned out to be 12.355 ng/mL; in data set [1] (L1 9 month, dGA calibrator), 13.661 ng/mL; in data set [1] (L66+/+ 5 month), 1.937 ng/mL; in data set [1] (L66+/- 5 month), 0.567 ng/mL; in data set [1] (WT 5 month), 1.947 ng/mL; in data set [1] (WT 9 month) it was 2.177 ng/mL. Moreover, the “detection of tau in brain homogenate” value in data set [2] (S1G2 scAb detection) is recorded as “All four samples have similar tau levels”.

B2: CB7: human-specific N-terminal anti-tau clone, Table 10; SEQ ID NO: 364 (protein)
scFv: QVQLQESGPSLVKPSQTLSLTCTVSGFSLTNYRVGWVRQAPGKALEWVSNIRSGGTTWYNPALKSRLSITADTSKSQVSLSLSSVTTEDTAVYYCARDSSGDLYAYDYWGPGLLVTVSSEGKSSGASGESKVDDQAVLTQPSSVSRSLGQSVSMTCSGSSSNVGYGNYMAWFQQVPGSAPKLLIYGATSRASGVPDRFSGSRSGNTATLTISSLQAEDEADYYCASYDSTSGGVFGSGTRLTVLG
modifications: CB7 amino acid sequence
For the molecule B2, the “detection of tau in brain homogenate” value in data set [2] (CB7 scAb detection, listed as C-B7 scAb) is “hT40 tau was specifically detected in L66 samples”; in data set [2] (CB7 scAb detection, listed as CB7 scAb), “can specifically detect human tau in Line66 homozygous and heterozygous samples”.

B3: S1D12: sheep-derived anti-tau core clone; scFv SEQ ID NO: 32, VH 443, VL 444 (protein)
scFv: QVQLQESGPSLVKPSQTLSLTCTVSGFSLNNNAVGWVRQAPGKVPESLVGCSSDGTCYYNSALKSRLDITRDTSKNQISLSLSSVTTDDAAVYYCTRGHYSIYGYDYLGTIDYWGPGLLVTVSSEGKSSGASGESKVDDQAVLTQPSSVSGSLGQRVSITCSGSSSNVGGGNSVGWYQHLPGSGLKTIIYDTNSRPSGVPDRFSGSRSGNTATLTINSLQAEDEGDYYCVTGDSTTHDDLVGSGTRLTVLG
modifications: S1D12 amino acid sequence
Regarding B3, the Plasma tau level came out at 12.355 ng/mL in data set [1] (L1 5 month, dGA calibrator); 13.661 ng/mL in data set [1] (L1 9 month, dGA calibrator); 1.937 ng/mL in data set [1] (L66+/+ 5 month); 0.567 ng/mL in data set [1] (L66+/- 5 month); 1.947 ng/mL in data set [1] (WT 5 month); 2.177 ng/mL in data set [1] (WT 9 month).

B4: S1G2: sheep-derived anti-tau core clone; scFv SEQ ID NO: 81, VH 455, VL 456 (protein)
scFv: QVQLQESGPSLVKPSQTLSLTCTVSGFSLTSNSVGWVRQAPGKAPEWVAGIDTDGEEGYNPALNSRLSITRDTSKSQVSLSLSSVTSEDTAVYYCGRSYRADGLAYGYVQAIDYWGPGLLVTVSSEGKSSGASGESKVDDQAVVTQPSSVSGSLGQRVSITCSGSFIGISSVGWFQQLPGSGLRTIIVASDGRPSGVPDRFSMSKSGNTATLTISSLQAEDEADYFCGSSDRTPYTGVFGSGTRLTVLG
modifications: S1G2 amino acid sequence
B4: in data set [2] (S1G2 scAb detection), the “detection of tau in brain homogenate” value is listed as “tau protein was detected in 50 μg of total brain protein in all four different sample types”.
